Record: PubChem BioAssay AID1259308 (NCATS, 2017)
Here is a random part of about 59,000 reagents tested. About 1,510 of all reagents (2.6%) count as active. 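Calls use total luciferase alone and ignore viability, so some active siRNAs may act by altering cell number.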 The numbers tell different reagents against one gene apart.

Screen: 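Candidate targets for better recombinant protein yield in mammalian cells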 (primary screen)
Cell system: human HEK293 embryonic kidney cells stably expressing firefly luciferase (HEK-CMV-Luc2-Hygro)
Reagents: single siRNA against human genes, 0.8 pmol siRNA per well
Time to read-out: 72 h
Read-out: 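Reporter luminescence and viable-cell signal on separate replicate plates, given as percent of non-targeting control and median/MAD z-scores, plus per-cell luciferase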
Scale: total luciferase, z-score and total luciferase, % of control: higher = more reporter protein produced; luciferase per cell, z-score: higher = more reporter output per viable cell; viable cells, % of control: higher = more viable cells
Rule for the call: 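Active when the median/MAD z-score for overall luciferase is greater than 3; a gene was taken forward for validation with new siRNAs if at least two of its three siRNAs passed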
Meaning of the calls: active = raised luciferase; inactive = no rise

target	reagent no.	total luciferase, z-score	total luciferase, % of control	luciferase per cell, z-score	viable cells, % of control	outcome
PRB4 (proline rich protein BstNI subfamily 4)	1	-0.478	72.4	-0.82	100	inactive
PRB4 (proline rich protein BstNI subfamily 4)	2	0.107	84	-0.136	97.3	inactive
PRB4 (proline rich protein BstNI subfamily 4)	3	0.0748	83.4	-0.362	102	inactive
ONECUT2 (one cut homeobox 2)	1	1.01	102	1.68	73.1	inactive
ONECUT2 (one cut homeobox 2)	2	2.63	134	2.57	76.1	inactive
ONECUT2 (one cut homeobox 2)	3	-0.0935	80	-0.409	99.6	inactive
NOTUM (notum, palmitoleoyl-protein carboxylesterase)	1	1.12	104	0.658	97.9	inactive
NOTUM (notum, palmitoleoyl-protein carboxylesterase)	2	0.295	87.7	0.0114	97.8	inactive
NOTUM (notum, palmitoleoyl-protein carboxylesterase)	3	0.0111	82.1	0.603	78.3	inactive
SMIM10 (small integral membrane protein 10)	1	-0.0973	80	0.81	72.2	inactive
SMIM10 (small integral membrane protein 10)	2	-0.0365	81.2	0.256	84.8	inactive
SMIM10 (small integral membrane protein 10)	3	1.69	116	0.727	107	inactive
VWC2L (von Willebrand factor C domain containing 2 like)	1	-0.873	64.5	-0.481	81.8	inactive
VWC2L (von Willebrand factor C domain containing 2 like)	2	-0.293	76.1	-0.816	105	inactive
VWC2L (von Willebrand factor C domain containing 2 like)	3	1.04	103	-0.361	126	inactive
RPL37P23 (ribosomal protein L37 pseudogene 23)	1	-0.0233	81.4	0.839	72.9	inactive
RPL37P23 (ribosomal protein L37 pseudogene 23)	2	-1.09	60.2	-0.792	82.9	inactive
RPL37P23 (ribosomal protein L37 pseudogene 23)	3	1.88	119	2.14	75.9	inactive
MRPL34 (mitochondrial ribosomal protein L34)	1	-0.689	68.2	-0.2	80.3	inactive
MRPL34 (mitochondrial ribosomal protein L34)	2	-0.319	75.5	0.269	78.6	inactive
MRPL34 (mitochondrial ribosomal protein L34)	3	1.05	103	0.793	93.3	inactive
FARP1 (FERM, ARH/RhoGEF and pleckstrin domain protein 1)	1	0.449	90.8	0.853	81.1	inactive
FARP1 (FERM, ARH/RhoGEF and pleckstrin domain protein 1)	2	-0.281	76.3	-0.97	110	inactive
FARP1 (FERM, ARH/RhoGEF and pleckstrin domain protein 1)	3	0.182	85.5	0.17	91.4	inactive
SOX3 (SRY-box transcription factor 3)	1	-1.09	60.3	-1.06	89.1	inactive
SOX3 (SRY-box transcription factor 3)	2	0.336	88.6	-0.301	107	inactive
SOX3 (SRY-box transcription factor 3)	3	0.0256	82.4	-0.295	99.5	inactive
MEIOSIN (meiosis initiator)	1	0.0227	82.3	2.57	46.8	inactive
MEIOSIN (meiosis initiator)	2	5.89	199	3.09	98.5	active
MEIOSIN (meiosis initiator)	3	0.362	89.1	0.223	93.9	inactive
TUSC2 (tumor suppressor 2, mitochondrial calcium regulator)	1	0.516	92.1	0.225	97	inactive
TUSC2 (tumor suppressor 2, mitochondrial calcium regulator)	2	0.751	96.8	0.959	84.1	inactive
TUSC2 (tumor suppressor 2, mitochondrial calcium regulator)	3	0.687	95.6	0.992	82.2	inactive
TLN2-AS2 (TLN2 antisense RNA 2)	1	1.07	103	1.01	88.5	inactive
TLN2-AS2 (TLN2 antisense RNA 2)	2	-1.18	58.4	-0.168	68.2	inactive
TLN2-AS2 (TLN2 antisense RNA 2)	3	1.28	107	0.201	114	inactive
SPDYE14 (speedy/RINGO cell cycle regulator family member E14)	1	0.915	100	0.479	98.6	inactive
SPDYE14 (speedy/RINGO cell cycle regulator family member E14)	2	-0.201	77.9	-0.681	104	inactive
SPDYE14 (speedy/RINGO cell cycle regulator family member E14)	3	1.31	108	1.03	92	inactive

An excerpt from above, reduced to “total luciferase, % of control”:
SOX3 (SRY-box transcription factor 3) #2	88.6
SOX3 (SRY-box transcription factor 3) #3	82.4
MEIOSIN (meiosis initiator) #1	82.3
MEIOSIN (meiosis initiator) #2	199
